PubChem BioAssay AID686938 – Drosophila RNAi Screening Center, 2013

Aim: 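Knock-downs reducing store-operated calcium influx in Drosophila cells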 (primary screen)
Cell system: Drosophila S2R+ cells
Knock-down reagent: long dsRNA against Drosophila genes, about 0.25 µg dsRNA per well, roughly 10,000 cells
Duration: 5 days of knock-down before the calcium assay
Treatment: thapsigargin (SERCA pump blocker) to empty calcium stores; entry signal taken 4 min after adding it
Read-out: 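Duplicate raw fluo-4 intensities per well from a plate reader, at rest and four minutes after thapsigargin emptied calcium stores; entry-to-rest ratio filled for only some wells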
Reading the numbers: calcium entry signal: higher = stronger calcium signal after store depletion; entry to resting ratio: higher = more calcium entry relative to resting level; resting calcium signal: higher = higher resting calcium signal
Hit rule: 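Hit if the duplicate-averaged plate z-score for entry over resting signal is under −3; wells with weak total dye signal (Fmax z < −2) or more than 5 off-targets removed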
Meaning of the calls: active = strongly reduced calcium entry; inactive = no strong reduction
The deposit covers about 23,000 reagents; shown is an unselected part of those that have a named target and a result. Of all reagents, 75 (0.33%) are marked active. 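Raw plate signals without normalisation; calls rest on plate z-scores that were not deposited; ratio present for only 364 wells.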 A plus sign joins genes that one reagent is predicted to hit. Reagent sequences are not shown. The record does not give: the dose of the treatment.

Target gene	amplicon	calcium entry signal, replicate 1 (fluorescence units)	calcium entry signal, replicate 2 (fluorescence units)	entry to resting ratio	resting calcium signal, replicate 1 (fluorescence units)	resting calcium signal, replicate 2 (fluorescence units)	call
vri (GeneID 33759)	DRSC03633	4.50e7	4.59e7		2.53e7	2.14e7	inactive
vri (GeneID 33759)	DRSC23174	5.57e7	2.64e7		2.70e7	1.28e7	inactive
CG3448 (GeneID 39094)	DRSC10368	2.62e7	3.67e7		1.40e7	1.59e7	inactive
CG7149 (GeneID 34063)	DRSC03016	4.37e7			2.27e7		inactive
S-Lap7 (GeneID 36524)	DRSC06374	3.64e7	3.81e7		1.94e7	1.81e7	inactive
vnd (GeneID 31003)	DRSC17360	3.57e7	5.06e7		1.71e7	1.98e7	inactive
vnd (GeneID 31003)	DRSC18849	3.69e7	5.65e7	2.1	1.77e7	2.81e7	inactive
vnd (GeneID 31003)	DRSC22487	4.44e7	2.82e7		2.35e7	1.39e7	inactive
Damm (GeneID 36266)	DRSC07393	3.08e7	4.61e7		1.71e7	1.99e7	inactive
Dhod (GeneID 41022)	DRSC16647	2.23e7	2.97e7		1.05e7	1.40e7	inactive
Parp16 (GeneID 36841)	DRSC06597	4.81e7	5.92e7		2.25e7	2.65e7	inactive
Flad1 (GeneID 32240)	DRSC19898	4.20e7	4.06e7		1.97e7	1.82e7	inactive
CG16964 (GeneID 34605)	DRSC02546	3.41e7	1.91e7		1.61e7	9.28e6	inactive
CG15625 (GeneID 33694)	DRSC00460	3.05e7	3.75e7		1.58e7	1.72e7	inactive
gpp (GeneID 40793)	DRSC12515	3.22e7	2.74e7		1.53e7	1.41e7	inactive
gpp (GeneID 40793)	DRSC12516	5.49e7	4.58e7		2.47e7	2.15e7	inactive
CG3119 (GeneID 33479)	DRSC00569	3.08e7	3.88e7		1.56e7	1.66e7	inactive
CG1227 (GeneID 40872)	DRSC12534	3.92e7	4.82e7		1.65e7	1.99e7	inactive
CG30058 + CG34235 + CG34312	DRSC05401	5.49e7	5.08e7		3.01e7	2.13e7	inactive
Aasdh (GeneID 34175)	DRSC03467	3.25e7	4.29e7		1.62e7	1.75e7	inactive
CG3339 (GeneID 43295)	DRSC13821	3.57e7	5.27e7		1.76e7	2.38e7	inactive
CG3339 (GeneID 43295)	DRSC15479	3.61e7	5.43e7		1.77e7	2.20e7	inactive
MCPH1 (GeneID 36272)	DRSC06309	2.92e7	3.14e7		1.30e7	1.53e7	inactive
MCPH1 (GeneID 36272)	DRSC07308	3.78e7	3.76e7		1.91e7	1.72e7	inactive
MCPH1 (GeneID 36272)	DRSC22536	2.33e7	2.95e7		1.24e7	1.21e7	inactive

Reprinted from the entries so far (4 entries):
Target gene	amplicon	calcium entry signal, replicate 1 (fluorescence units)	calcium entry signal, replicate 2 (fluorescence units)	entry to resting ratio	resting calcium signal, replicate 1 (fluorescence units)	resting calcium signal, replicate 2 (fluorescence units)	call
CG16964 (GeneID 34605)	DRSC02546	3.41e7	1.91e7		1.61e7	9.28e6	inactive
CG15625 (GeneID 33694)	DRSC00460	3.05e7	3.75e7		1.58e7	1.72e7	inactive
gpp (GeneID 40793)	DRSC12515	3.22e7	2.74e7		1.53e7	1.41e7	inactive
gpp (GeneID 40793)	DRSC12516	5.49e7	4.58e7		2.47e7	2.15e7	inactive
